Data published in PMC8714094.
Results are given in words; binding and its absence hold for the method and conditions named. Binding seen in cells or lysates may run through a third protein. Some results given as binding are weak or reduced against the parent protein; the word gives no strength.

Chains of the proteins cited; added tags and fusions are not shown. Lines headed by an entry give the natural chain unless they say otherwise; changes in a name come on top. A line that says so, or that is headed by a name, gives the form on record, which may keep a tag or linker. Residues count along the entry.
UniProt P63101: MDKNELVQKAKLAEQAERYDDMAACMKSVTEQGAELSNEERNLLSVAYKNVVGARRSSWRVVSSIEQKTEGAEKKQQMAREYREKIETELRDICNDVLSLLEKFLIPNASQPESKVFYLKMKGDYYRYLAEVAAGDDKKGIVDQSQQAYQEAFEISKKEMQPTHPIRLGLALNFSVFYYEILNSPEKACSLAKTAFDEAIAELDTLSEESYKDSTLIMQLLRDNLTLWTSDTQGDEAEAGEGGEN
UniProt P63104: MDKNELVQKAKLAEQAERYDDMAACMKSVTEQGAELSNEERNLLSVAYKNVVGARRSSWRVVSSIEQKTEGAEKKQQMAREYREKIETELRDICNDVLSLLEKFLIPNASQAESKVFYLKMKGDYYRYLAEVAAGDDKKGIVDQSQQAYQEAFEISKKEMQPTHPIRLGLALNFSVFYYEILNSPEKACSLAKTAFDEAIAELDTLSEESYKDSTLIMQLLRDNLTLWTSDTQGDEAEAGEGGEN
UniProt P62258: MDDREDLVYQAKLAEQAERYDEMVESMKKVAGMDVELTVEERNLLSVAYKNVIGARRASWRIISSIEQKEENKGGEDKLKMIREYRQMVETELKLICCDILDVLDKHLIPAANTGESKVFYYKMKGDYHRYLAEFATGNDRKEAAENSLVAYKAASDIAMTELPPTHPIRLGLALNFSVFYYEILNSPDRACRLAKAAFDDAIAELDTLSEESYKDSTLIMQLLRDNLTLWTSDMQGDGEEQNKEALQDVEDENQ
UniProt Q01097, residues 27-1482: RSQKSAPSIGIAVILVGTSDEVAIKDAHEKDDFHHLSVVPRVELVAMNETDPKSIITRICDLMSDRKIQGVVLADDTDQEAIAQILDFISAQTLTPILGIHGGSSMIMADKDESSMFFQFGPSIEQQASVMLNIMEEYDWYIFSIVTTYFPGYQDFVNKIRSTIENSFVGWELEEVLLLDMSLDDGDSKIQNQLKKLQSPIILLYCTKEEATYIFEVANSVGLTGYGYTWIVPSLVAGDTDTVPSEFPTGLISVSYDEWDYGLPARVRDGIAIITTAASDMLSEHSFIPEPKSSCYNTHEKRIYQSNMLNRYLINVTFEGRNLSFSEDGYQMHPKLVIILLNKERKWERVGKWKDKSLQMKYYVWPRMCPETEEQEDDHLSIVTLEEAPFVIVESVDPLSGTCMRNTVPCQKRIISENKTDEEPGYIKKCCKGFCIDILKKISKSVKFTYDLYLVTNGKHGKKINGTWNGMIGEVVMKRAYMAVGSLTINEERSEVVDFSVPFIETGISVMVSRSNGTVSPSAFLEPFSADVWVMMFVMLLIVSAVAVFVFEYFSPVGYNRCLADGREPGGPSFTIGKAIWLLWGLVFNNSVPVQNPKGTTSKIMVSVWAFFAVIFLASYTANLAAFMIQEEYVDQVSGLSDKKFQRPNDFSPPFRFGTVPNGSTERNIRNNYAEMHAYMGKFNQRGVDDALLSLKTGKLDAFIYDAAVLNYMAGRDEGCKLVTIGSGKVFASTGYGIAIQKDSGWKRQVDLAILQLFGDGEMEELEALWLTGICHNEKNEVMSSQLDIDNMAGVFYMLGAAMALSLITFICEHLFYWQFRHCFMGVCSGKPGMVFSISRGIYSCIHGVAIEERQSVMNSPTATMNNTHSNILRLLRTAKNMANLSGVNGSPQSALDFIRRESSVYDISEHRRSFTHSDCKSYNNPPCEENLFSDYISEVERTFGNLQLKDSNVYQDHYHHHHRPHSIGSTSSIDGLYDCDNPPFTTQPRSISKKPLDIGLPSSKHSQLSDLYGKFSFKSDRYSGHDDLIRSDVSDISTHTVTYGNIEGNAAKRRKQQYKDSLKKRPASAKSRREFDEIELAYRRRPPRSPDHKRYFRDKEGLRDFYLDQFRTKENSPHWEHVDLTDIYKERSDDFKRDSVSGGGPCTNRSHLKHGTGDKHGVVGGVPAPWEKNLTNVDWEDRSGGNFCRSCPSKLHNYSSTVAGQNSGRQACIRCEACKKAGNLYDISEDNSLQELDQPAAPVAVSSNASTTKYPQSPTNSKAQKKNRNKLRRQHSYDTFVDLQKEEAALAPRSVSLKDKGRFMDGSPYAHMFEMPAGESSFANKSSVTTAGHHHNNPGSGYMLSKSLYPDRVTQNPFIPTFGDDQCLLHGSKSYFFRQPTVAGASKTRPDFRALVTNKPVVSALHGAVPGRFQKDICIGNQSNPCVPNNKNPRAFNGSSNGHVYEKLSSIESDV
GluN2B (Q00960, residues 27-1482): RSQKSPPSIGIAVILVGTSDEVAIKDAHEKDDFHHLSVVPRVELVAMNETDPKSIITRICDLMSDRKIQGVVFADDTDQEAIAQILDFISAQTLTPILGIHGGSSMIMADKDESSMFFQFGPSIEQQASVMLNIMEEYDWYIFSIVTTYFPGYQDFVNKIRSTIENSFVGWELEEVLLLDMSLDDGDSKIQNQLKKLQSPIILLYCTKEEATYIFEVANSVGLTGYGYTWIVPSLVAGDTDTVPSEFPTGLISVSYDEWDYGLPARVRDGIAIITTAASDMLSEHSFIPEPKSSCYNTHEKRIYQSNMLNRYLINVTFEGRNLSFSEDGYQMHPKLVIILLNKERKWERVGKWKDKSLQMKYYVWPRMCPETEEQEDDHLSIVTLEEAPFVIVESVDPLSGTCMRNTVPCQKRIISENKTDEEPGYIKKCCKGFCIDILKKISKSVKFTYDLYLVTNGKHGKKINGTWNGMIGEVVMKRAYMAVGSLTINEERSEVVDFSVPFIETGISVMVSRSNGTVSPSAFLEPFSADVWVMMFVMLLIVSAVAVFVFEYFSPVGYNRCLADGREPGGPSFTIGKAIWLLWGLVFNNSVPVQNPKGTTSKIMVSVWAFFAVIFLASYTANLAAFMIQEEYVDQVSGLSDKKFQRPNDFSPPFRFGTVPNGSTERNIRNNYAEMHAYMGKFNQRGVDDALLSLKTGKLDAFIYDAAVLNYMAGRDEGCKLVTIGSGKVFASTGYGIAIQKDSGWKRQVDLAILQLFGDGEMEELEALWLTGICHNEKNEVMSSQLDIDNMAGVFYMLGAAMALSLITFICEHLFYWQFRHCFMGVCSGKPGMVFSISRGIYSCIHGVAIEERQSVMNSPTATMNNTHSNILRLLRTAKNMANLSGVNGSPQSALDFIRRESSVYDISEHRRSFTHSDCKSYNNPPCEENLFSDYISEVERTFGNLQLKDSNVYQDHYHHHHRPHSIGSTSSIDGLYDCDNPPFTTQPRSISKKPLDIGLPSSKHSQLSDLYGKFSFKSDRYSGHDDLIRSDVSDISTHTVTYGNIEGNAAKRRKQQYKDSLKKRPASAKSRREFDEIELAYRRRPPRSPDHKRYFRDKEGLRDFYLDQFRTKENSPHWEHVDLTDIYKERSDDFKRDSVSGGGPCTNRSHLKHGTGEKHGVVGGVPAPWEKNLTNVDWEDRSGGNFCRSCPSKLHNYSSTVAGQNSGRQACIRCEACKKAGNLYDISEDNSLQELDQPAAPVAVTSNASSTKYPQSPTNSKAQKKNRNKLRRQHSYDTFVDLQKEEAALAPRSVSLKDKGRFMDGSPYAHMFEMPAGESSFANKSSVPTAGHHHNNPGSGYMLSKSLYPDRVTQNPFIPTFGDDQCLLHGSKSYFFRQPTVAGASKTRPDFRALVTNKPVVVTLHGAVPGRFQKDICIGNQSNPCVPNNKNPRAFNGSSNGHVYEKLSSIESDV
GluN2B S1303A/S1323A (Q00960, form named): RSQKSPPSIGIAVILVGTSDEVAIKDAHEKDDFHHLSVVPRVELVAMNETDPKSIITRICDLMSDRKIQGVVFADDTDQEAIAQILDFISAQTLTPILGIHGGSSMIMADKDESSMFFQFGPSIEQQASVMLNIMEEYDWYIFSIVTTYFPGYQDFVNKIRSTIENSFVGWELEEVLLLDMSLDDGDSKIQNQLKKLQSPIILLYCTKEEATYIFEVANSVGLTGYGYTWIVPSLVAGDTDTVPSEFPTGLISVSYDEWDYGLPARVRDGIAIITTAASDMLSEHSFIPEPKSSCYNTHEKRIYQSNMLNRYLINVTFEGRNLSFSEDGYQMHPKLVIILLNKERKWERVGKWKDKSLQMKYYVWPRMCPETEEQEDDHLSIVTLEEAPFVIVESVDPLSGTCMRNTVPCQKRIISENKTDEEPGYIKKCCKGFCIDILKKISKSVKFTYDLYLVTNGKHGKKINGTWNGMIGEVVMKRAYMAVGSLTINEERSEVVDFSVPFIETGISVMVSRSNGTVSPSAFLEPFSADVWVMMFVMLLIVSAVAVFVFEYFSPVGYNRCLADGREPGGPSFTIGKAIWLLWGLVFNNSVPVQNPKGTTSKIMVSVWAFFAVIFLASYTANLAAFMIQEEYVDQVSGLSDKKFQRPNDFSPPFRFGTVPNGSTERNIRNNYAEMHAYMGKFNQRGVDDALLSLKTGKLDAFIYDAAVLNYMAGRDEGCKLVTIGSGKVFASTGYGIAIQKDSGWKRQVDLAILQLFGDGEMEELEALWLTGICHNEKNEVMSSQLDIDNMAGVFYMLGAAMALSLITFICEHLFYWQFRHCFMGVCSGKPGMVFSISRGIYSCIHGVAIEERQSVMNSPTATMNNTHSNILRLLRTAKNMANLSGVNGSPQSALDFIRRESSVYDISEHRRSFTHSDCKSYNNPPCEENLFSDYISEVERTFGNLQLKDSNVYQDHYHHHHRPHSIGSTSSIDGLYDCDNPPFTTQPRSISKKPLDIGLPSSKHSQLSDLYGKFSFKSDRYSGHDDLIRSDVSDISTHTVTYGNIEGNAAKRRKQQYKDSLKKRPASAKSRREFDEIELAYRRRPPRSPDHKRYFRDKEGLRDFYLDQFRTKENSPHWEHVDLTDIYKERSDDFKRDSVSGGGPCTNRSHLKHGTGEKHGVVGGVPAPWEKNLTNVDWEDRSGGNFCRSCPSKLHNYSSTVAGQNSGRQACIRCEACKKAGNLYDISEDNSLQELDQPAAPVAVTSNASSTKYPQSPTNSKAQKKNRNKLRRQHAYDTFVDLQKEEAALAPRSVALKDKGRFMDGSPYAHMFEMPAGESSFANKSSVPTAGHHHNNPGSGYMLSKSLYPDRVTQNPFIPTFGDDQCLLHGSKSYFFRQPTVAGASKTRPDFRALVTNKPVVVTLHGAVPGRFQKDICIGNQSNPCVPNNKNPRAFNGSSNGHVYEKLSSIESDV

Tests used:
[1] = biological target: 14-3-3ζ (endogenous, mouse hippocampus) (mouse (endogenous in hippocampus)) (UniProt P63101); assay: co-IP; mouse hippocampal lysate in RIPA buffer; IP with rabbit polyclonal anti-14-3-3ζ, rabbit IgG (anti-mCherry) as negative control; six washes with RIPA containing 0.2% SDS; blots for GluN1, GluN2A, GluN2B
[2] = biological target: HA-tagged 14-3-3ζ (human) (UniProt P63104); assay: co-IP; tsA201 cells co-expressing GluN1-1a and GluN2A with HA-14-3-3ζ or ε; anti-HA IP from lysate (1% Triton X-100, 10 mM EDTA, 120 mM NaCl, 50 mM KCl, 50 mM NaF, 2 mM DTT), blots for GluN1 and GluN2A
[3] = biological target: HA-tagged 14-3-3ε (human) (UniProt P62258); assay: co-IP; tsA201 cells expressing GluN2A S1291A/S1312A and GluN1 with HA-14-3-3ζ or ε; anti-HA IP, blots for GluN1 and GluN2A; preliminary findings
[4] = biological target: HA-tagged 14-3-3ζ (human) (UniProt P63104); assay: as above
[5] = biological target: HA-tagged 14-3-3ζ (human) (UniProt P63104); assay: co-IP; tsA201 cells co-expressing GluN1-1a and GluN2B with HA-14-3-3ζ or ε; anti-HA IP from lysate (1% Triton X-100, 10 mM EDTA, 120 mM NaCl, 50 mM KCl, 50 mM NaF, 2 mM DTT), blots for GluN1 and GluN2B
[6] = biological target: HA-tagged 14-3-3ε (human) (UniProt P62258); assay: co-IP; tsA201 cells expressing GluN2B S1303A/S1323A and GluN1 with HA-14-3-3ζ or ε; anti-HA IP, blots for GluN1 and GluN2B; preliminary findings
[7] = biological target: HA-tagged 14-3-3ζ (human) (UniProt P63104); assay: as above

Substance: GluN2A (endogenous, mouse hippocampus) (from UniProt P35436 23-1464) (receptor)
- binding [1]: binds

Substance: GluN2A (from UniProt Q00959 23-1464) (receptor)
- binding [2]: binds

Substance: GluN2A S1291A/S1312A (from UniProt Q00959 23-1464) (receptor)
- binding [3]: binds
- binding [4]: binds

Substance: GluN2B (endogenous, mouse hippocampus) (from UniProt Q01097 27-1482) (receptor)
- binding [1]: binds

Substance: GluN2B (from UniProt Q00960 27-1482) (receptor)
- binding [5]: binds

Substance: GluN2B S1303A/S1323A (from UniProt Q00960 27-1482) (receptor)
- binding [6]: binds
- binding [7]: binds
